Assay results published in the supplement of paper PMC10849652.
This is one part of the list.

Chains of the proteins cited; added tags and fusions are not shown. Lines headed by an entry give the natural chain unless they say otherwise; changes in a name come on top.
UniProt O15305: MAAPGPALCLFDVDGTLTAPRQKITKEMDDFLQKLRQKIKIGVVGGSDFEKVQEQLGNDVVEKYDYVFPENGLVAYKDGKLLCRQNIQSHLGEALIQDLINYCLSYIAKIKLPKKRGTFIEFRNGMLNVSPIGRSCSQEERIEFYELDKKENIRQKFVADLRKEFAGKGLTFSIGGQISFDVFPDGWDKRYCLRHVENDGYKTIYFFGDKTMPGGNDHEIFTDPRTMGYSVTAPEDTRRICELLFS
UniProt P41247: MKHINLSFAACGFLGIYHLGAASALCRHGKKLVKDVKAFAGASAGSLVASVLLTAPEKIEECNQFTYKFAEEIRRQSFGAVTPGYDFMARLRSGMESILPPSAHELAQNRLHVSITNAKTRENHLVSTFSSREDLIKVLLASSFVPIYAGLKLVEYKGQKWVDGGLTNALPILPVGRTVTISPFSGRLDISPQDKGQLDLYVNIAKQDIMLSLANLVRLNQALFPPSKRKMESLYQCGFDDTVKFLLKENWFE
UniProt Q8WUA2: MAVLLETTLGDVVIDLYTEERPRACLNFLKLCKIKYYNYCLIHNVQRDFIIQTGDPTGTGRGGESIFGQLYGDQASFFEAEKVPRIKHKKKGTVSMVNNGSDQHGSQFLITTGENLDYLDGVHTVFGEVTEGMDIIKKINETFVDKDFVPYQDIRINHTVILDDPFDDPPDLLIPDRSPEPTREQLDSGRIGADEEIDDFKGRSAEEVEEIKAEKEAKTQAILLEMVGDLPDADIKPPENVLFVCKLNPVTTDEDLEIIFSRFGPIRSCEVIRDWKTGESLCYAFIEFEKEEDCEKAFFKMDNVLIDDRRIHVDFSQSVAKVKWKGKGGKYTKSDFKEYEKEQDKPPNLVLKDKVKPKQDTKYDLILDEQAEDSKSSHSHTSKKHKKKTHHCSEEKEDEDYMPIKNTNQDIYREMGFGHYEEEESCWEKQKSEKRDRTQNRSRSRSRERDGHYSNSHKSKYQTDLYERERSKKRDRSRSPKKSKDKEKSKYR
UniProt Q8NAT1: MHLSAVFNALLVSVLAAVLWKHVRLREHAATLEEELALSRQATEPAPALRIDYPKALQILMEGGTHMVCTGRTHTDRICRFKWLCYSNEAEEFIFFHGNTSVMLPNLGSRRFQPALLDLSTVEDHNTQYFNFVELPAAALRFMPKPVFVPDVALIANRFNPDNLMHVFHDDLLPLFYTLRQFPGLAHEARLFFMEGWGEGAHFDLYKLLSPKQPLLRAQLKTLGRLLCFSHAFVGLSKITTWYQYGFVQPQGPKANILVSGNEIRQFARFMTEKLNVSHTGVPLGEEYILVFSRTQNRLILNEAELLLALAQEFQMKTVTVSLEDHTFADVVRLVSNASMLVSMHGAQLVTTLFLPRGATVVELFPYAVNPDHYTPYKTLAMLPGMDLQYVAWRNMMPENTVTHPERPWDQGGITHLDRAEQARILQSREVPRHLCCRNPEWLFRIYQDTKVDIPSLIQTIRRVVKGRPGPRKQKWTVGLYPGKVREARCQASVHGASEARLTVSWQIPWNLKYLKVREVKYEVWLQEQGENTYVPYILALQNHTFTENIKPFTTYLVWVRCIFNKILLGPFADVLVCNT
UniProt Q8IWE5: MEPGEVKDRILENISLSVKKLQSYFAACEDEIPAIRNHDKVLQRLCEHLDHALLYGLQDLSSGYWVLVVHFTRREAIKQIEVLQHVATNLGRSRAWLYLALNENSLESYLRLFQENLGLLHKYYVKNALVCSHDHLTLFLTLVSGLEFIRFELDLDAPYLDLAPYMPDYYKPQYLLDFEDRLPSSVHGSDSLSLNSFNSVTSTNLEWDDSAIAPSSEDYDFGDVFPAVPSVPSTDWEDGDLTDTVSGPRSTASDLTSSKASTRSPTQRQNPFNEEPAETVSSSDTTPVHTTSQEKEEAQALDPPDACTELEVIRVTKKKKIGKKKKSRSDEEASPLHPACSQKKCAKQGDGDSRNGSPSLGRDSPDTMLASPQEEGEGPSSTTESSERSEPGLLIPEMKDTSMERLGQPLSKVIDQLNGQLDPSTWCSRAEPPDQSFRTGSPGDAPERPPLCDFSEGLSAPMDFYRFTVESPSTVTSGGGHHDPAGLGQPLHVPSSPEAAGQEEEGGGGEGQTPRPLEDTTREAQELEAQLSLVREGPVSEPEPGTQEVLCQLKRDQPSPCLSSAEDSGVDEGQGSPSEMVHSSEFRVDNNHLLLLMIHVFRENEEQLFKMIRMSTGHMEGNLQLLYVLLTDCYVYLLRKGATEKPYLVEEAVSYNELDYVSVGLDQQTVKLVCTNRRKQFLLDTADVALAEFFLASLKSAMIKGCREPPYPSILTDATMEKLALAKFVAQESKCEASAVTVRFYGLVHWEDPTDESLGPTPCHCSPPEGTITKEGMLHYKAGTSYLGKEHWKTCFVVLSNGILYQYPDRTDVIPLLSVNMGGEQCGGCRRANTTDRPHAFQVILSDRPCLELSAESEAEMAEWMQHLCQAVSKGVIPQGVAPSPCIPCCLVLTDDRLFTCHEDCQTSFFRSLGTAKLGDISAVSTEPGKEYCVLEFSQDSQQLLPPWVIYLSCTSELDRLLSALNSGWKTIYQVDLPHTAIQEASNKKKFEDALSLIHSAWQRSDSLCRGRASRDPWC
UniProt Q7Z3K3: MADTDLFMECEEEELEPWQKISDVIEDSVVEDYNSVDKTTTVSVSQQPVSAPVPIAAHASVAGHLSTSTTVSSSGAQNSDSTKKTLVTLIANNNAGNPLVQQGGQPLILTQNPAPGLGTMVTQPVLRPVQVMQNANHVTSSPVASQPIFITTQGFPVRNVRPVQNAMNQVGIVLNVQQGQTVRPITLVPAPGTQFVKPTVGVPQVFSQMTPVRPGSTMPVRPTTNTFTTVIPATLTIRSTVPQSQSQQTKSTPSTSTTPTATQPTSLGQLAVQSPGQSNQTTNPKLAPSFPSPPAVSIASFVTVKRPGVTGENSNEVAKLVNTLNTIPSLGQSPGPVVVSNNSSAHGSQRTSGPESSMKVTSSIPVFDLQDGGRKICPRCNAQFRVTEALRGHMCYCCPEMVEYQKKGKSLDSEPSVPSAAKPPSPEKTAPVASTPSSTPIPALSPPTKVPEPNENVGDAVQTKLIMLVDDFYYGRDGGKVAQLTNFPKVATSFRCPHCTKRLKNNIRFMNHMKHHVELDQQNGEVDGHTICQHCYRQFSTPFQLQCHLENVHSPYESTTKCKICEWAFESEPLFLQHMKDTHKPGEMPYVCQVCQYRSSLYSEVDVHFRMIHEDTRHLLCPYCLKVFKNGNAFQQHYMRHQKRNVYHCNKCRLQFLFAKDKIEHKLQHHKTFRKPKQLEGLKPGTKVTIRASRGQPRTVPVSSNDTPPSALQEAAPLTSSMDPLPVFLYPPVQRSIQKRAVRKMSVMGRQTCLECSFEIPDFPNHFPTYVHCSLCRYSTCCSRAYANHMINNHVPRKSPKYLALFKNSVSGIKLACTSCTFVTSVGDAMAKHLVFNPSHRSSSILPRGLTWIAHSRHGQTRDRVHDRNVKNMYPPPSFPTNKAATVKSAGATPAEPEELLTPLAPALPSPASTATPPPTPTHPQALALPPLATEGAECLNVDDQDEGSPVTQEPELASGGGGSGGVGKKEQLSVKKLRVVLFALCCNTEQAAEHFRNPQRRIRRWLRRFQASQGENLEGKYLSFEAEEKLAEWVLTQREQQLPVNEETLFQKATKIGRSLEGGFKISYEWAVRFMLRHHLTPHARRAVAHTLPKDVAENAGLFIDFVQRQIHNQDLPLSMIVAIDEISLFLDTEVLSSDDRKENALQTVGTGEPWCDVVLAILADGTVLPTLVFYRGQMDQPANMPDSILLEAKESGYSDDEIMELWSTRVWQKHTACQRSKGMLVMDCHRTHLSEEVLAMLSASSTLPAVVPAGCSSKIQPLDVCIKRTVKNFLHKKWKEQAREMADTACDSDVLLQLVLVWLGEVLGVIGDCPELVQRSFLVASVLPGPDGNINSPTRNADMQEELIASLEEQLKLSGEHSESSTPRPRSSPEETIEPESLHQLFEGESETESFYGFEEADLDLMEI
UniProt P09884: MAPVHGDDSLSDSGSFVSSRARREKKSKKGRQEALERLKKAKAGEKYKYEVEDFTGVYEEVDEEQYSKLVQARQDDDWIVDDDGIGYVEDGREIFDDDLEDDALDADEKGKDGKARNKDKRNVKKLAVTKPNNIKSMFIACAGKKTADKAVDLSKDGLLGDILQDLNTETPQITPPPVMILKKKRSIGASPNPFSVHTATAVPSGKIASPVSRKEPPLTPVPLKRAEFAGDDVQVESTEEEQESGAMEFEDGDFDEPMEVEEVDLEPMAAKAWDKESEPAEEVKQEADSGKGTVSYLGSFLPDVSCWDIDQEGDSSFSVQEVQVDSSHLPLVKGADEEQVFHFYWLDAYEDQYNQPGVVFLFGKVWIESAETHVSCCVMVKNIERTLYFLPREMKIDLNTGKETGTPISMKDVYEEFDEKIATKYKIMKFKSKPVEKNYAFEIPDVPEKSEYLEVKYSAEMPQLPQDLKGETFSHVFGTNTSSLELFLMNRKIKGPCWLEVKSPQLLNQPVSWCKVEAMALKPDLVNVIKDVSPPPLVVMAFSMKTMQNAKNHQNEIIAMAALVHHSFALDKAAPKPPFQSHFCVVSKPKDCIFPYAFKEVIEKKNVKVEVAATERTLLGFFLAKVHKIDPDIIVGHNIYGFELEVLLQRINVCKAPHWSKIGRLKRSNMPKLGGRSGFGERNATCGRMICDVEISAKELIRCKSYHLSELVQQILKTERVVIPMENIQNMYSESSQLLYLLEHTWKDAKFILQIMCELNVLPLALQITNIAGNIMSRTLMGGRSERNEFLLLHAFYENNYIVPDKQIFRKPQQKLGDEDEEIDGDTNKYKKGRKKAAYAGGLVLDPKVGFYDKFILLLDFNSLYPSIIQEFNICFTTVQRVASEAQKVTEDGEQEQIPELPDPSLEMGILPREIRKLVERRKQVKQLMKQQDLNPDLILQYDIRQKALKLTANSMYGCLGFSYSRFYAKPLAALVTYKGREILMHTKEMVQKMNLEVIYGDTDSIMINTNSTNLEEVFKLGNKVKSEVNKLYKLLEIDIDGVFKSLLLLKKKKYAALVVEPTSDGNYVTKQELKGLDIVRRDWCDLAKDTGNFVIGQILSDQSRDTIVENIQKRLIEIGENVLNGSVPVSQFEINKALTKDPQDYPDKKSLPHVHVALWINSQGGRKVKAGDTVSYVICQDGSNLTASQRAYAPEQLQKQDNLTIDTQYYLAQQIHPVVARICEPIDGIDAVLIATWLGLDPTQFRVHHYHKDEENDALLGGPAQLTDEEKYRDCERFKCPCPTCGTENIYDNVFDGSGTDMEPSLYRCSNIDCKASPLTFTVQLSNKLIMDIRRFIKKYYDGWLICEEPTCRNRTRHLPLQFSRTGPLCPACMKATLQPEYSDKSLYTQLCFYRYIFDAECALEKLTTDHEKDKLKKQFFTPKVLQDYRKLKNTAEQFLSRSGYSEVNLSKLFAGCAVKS
UniProt Q99575: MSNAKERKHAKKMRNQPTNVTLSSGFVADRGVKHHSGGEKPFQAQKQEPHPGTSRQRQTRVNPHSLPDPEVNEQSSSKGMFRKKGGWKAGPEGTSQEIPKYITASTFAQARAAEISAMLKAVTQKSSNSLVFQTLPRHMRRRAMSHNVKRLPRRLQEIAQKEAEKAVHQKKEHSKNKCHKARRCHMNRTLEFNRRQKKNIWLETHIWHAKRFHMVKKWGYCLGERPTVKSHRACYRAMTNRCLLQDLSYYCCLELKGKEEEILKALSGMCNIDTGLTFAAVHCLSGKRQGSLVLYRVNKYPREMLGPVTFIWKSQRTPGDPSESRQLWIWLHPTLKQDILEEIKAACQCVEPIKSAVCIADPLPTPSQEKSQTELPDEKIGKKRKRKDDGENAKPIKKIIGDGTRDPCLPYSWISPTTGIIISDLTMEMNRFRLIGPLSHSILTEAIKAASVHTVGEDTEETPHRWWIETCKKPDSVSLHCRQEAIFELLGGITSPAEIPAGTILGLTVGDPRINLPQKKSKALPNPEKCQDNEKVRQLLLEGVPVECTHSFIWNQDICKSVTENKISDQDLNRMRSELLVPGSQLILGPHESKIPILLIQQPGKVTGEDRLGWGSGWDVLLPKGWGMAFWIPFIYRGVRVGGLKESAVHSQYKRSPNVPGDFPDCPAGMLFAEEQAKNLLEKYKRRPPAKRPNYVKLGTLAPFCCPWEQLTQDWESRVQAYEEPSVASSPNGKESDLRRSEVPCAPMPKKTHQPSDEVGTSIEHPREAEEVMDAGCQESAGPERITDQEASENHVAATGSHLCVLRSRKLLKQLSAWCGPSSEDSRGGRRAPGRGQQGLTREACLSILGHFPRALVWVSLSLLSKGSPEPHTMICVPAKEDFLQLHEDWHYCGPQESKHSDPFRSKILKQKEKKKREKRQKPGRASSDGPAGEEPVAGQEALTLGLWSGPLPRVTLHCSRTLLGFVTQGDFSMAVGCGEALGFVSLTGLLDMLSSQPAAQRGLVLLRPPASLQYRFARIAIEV

Columns and labels:
Test in all cases: log2 fold change, soluble protein after heating vs DMSO (PISA); higher = thermal stabilisation; K562 cells, 10 uM, 30 min; active = over 0.2 and 3.5 SD of the protein, either way, in both replicates (recomputed)
saracatinib = compound: CN1CCN(CCOc2cc(OC3CCOCC3)c3c(Nc4c(Cl)ccc5c4OCO5)ncnc3c2)CC1 [saracatinib]
Outline: (§1)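 Aliquots of K562 cells (2×10^6 cells/mL) treated with 10 μM compound for 30 min were heated for 3 min over 48°C-58°C. After pooling and extraction in PBS with 0.5% NP-40 at 4°C, soluble protein from a 21,000xg, 90 min spin was quantified by TMTpro 16plex LC-MS/MS with channel sums equalised. Thermal stability is expressed against control samples, from duplicates, as a log2 fold change.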

sotrastaurin = compound: CN1CCN(c2nc(C3=C(c4c[nH]c5ccccc45)C(=O)NC3=O)c3ccccc3n2)CC1 [sotrastaurin]
Outline: as §1

Tubastatin A = compound: CN1CCc2c(c3ccccc3n2Cc2ccc(C(=O)NO)cc2)C1 [Tubastatin A]
Outline: as §1

[1] = compound: CNC(=O)C1=CC=CC=C1NC2=NC(=NC=C2Cl)NC3=C(C=C(C=C3)N4CCOCC4)OC
Outline: as §1

defactinib = compound: CNC(=O)c1ccc(Nc2ncc(C(F)(F)F)c(NCc3nccnc3N(C)S(C)(=O)=O)n2)cc1 [defactinib]
Outline: as §1

rucaparib = compound: CNCc1ccc(-c2[nH]c3cc(F)cc4c3c2CCNC4=O)cc1 [rucaparib]
Outline: as §1

[2] = compound: CNc1nc(-c2ccc3c(N)n[nH]c3c2)cc(N2C[C@@H](C(=O)NC3CCCCC3)CC[C@H]2C)n1
Outline: as §1

encorafenib = compound: COC(=O)N[C@@H](C)CNc1nccc(-c2cn(C(C)C)nc2-c2cc(Cl)cc(NS(C)(=O)=O)c2F)n1 [encorafenib]
Outline: as §1

[3] = compound: COC(=O)[C@H](CCSC)NC(=O)C1=C(C=C(C=C1)NC[C@H](CS)N)C2=CC=CC=C2
Outline: as §1

alvocidib = compound: CN1CC[C@H](c2c(O)cc(O)c3c(=O)cc(-c4ccccc4Cl)oc23)[C@H](O)C1 [alvocidib]
Outline: as §1

Measured: log2 fold change

POLR1A (UniProt O95602)
inactive: saracatinib -0.027 | sotrastaurin -0.151 | Tubastatin A 0.148 | [1] -0.138 | defactinib -0.011 | rucaparib 0.064 | [2] -0.089 | encorafenib -0.015 | [3] 0.115

PMM2 (UniProt O15305)
inactive: saracatinib -0.025 | sotrastaurin 0.062 | Tubastatin A -0.031 | [1] -0.183 | defactinib 0.022 | rucaparib 0.018 | [2] -0.02 | encorafenib -0.006 | [3] 0.058

POTEI (UniProt P0CG38)
inactive: saracatinib 0.108 | sotrastaurin 0.066 | Tubastatin A -0.012 | [1] -0.02 | defactinib -0.026 | rucaparib -0.049 | [2] -0.014 | encorafenib -0.007 | [3] -0.016

PPIL1 (UniProt Q9Y3C6)
inactive: saracatinib -0.007 | sotrastaurin -0.088 | Tubastatin A -0.016 | [1] 0.042 | defactinib 0.09 | rucaparib 0.056 | [2] -0.062 | encorafenib 0.052 | [3] -0.042

POLR2M (UniProt Q6EEV4)
inactive: saracatinib 0.011 | sotrastaurin -0.015 | Tubastatin A -0.131 | [1] 0.097 | defactinib -0.081 | rucaparib -0.145 | [2] -0.084 | encorafenib -0.047 | [3] 0.026

POLR2K (UniProt P53803)
inactive: saracatinib -0.024 | sotrastaurin 0.032 | Tubastatin A -0.031 | [1] -0.057 | defactinib 0.034 | rucaparib 0.039 | [2] -0.047 | encorafenib -0.174 | [3] -0.063

PPIC (UniProt P45877)
inactive: saracatinib -0.145 | sotrastaurin -0.072 | alvocidib -0.028 | [1] 0.022 | rucaparib -0.069 | [2] -0.05 | encorafenib -0.251

PNPLA4 (UniProt P41247)
inactive: saracatinib -0.267 | sotrastaurin -0.091 | Tubastatin A 0.007 | [1] 0.058 | defactinib -0.047 | rucaparib 0 | [2] 0.17 | encorafenib -0.343 | [3] -0.011

POLA2 (UniProt Q14181)
inactive: saracatinib 0.035 | sotrastaurin -0.055 | Tubastatin A 0.051 | [1] 0.096 | defactinib -0.254 | rucaparib -0.125 | [2] 0.039 | encorafenib 0.06 | [3] -0.038

POLD3 (UniProt Q15054)
inactive: saracatinib -0.035 | sotrastaurin -0.131 | Tubastatin A 0.137 | [1] 0.01 | defactinib -0.225 | rucaparib 0.018 | [2] 0.042 | encorafenib 0.082 | [3] -0.047

POLR2D (UniProt O15514)
inactive: saracatinib 0.064 | sotrastaurin 0.015 | Tubastatin A -0.064 | [1] -0.114 | defactinib 0.165 | rucaparib 0.056 | [2] 0.026 | encorafenib 0.003 | [3] -0.038

POMK (UniProt Q9H5K3)
inactive: saracatinib -0.047 | sotrastaurin 0.007 | Tubastatin A 0.021 | [1] 0.022 | defactinib 0.024 | rucaparib 0.168 | [2] -0.052 | encorafenib 0.089 | [3] -0.056

POGLUT1 (UniProt Q8NBL1)
inactive: saracatinib -0.124 | sotrastaurin 0 | Tubastatin A 0.009 | [1] -0.004 | defactinib 0.039 | rucaparib 0.069 | [2] -0.063 | encorafenib 0.015 | [3] 0.042

PPIL4 (UniProt Q8WUA2)
inactive: saracatinib -0.012 | sotrastaurin -0.072 | Tubastatin A -0.005 | [1] -0.123 | defactinib -0.108 | rucaparib 0.07 | [2] 0.024 | encorafenib 0.086 | [3] -0.031

PMPCB (UniProt O75439)
inactive: saracatinib 0.001 | sotrastaurin 0.051 | Tubastatin A -0.068 | [1] 0.005 | defactinib -0.042 | rucaparib -0.033 | [2] -0.003 | encorafenib -0.022 | [3] -0.029

POMGNT2 (UniProt Q8NAT1)
inactive: saracatinib 0.127 | sotrastaurin -0.029 | alvocidib -0.067 | [1] -0.061 | defactinib 0.035 | [2] 0.014 | [3] -0.009

POLR3H (UniProt Q9Y535)
inactive: saracatinib 0.058 | sotrastaurin 0.072 | alvocidib -0.015 | [1] -0.024 | defactinib -0.059 | [2] 0.05 | [3] -0.005

PPIL3 isoform 2 (UniProt Q9H2H8)
inactive: saracatinib 0.034 | sotrastaurin -0.082 | Tubastatin A 0.018 | [1] -0.031 | defactinib -0.017 | rucaparib -0.031 | [2] -0.042 | encorafenib -0.034 | [3] -0.074

PLEKHM2 (UniProt Q8IWE5)
inactive: saracatinib -0.002 | sotrastaurin -0.047 | Tubastatin A 0.029 | [1] -0.215 | defactinib -0.054 | rucaparib -0.087 | [2] -0.019 | encorafenib 0.058 | [3] -0.014

POGZ (UniProt Q7Z3K3)
inactive: saracatinib -0.134 | sotrastaurin -0.186 | Tubastatin A -0.071 | [1] 0.056 | defactinib -0.162 | rucaparib 0.196 | [2] 0.136 | encorafenib -0.02 | [3] -0.043

PML (UniProt P29590)
inactive: saracatinib -0.001 | sotrastaurin -0.038 | Tubastatin A -0.051 | [1] 0.024 | defactinib -0.053 | rucaparib -0.008 | [2] -0.031 | encorafenib 0.005 | [3] 0

POLA1 (UniProt P09884)
inactive: saracatinib 0.006 | sotrastaurin -0.096 | Tubastatin A 0.025 | [1] 0.079 | defactinib -0.156 | rucaparib -0.126 | [2] -0.016 | encorafenib -0.005 | [3] -0.035

PPIL2 (UniProt Q13356)
inactive: saracatinib -0.02 | sotrastaurin -0.096 | Tubastatin A 0.069 | [1] -0.023 | defactinib -0.194 | rucaparib 0.073 | [2] 0.067 | encorafenib 0.047 | [3] -0.065

2 entries drawn at random from those above, as already listed:
POLA1 (UniProt P09884)
inactive: saracatinib 0.006 | sotrastaurin -0.096 | Tubastatin A 0.025 | [1] 0.079 | defactinib -0.156 | rucaparib -0.126 | [2] -0.016 | encorafenib -0.005 | [3] -0.035

POGZ (UniProt Q7Z3K3)
inactive: saracatinib -0.134 | sotrastaurin -0.186 | Tubastatin A -0.071 | [1] 0.056 | defactinib -0.162 | rucaparib 0.196 | [2] 0.136 | encorafenib -0.02 | [3] -0.043

(next part)

POLR2I (UniProt P36954)
inactive: saracatinib 0.134 | sotrastaurin 0.033 | Tubastatin A -0.266 | [1] 0.009 | defactinib 0.141 | rucaparib 0.162 | [2] 0.02 | encorafenib 0.015 | [3] 0.023

POP1 (UniProt Q99575)
inactive: saracatinib 0.077 | sotrastaurin -0.01 | Tubastatin A 0.026 | [1] -0.002 | defactinib -0.055 | rucaparib 0.014 | [2] 0.014 | encorafenib 0.006 | [3] 0.016

PMPCA (UniProt Q10713)
inactive: saracatinib -0.026 | sotrastaurin -0.007 | Tubastatin A -0.007 | [1] 0.007 | defactinib -0.086 | rucaparib -0.022 | [2] 0.052 | encorafenib -0.027 | [3] -0.022

POLR2C (UniProt P19387)
inactive: saracatinib -0.096 | sotrastaurin -0.015 | Tubastatin A -0.049 | [1] -0.043 | defactinib 0.133 | rucaparib 0.059 | [2] 0.03 | encorafenib 0.002 | [3] -0.045

PNPLA2 (UniProt Q96AD5)
inactive: saracatinib 0.015 | sotrastaurin -0.028 | Tubastatin A -0.034 | [1] -0.039 | defactinib 0 | rucaparib -0.06 | [2] 0.154 | encorafenib -0.012 | [3] -0.056

POMP (UniProt Q9Y244)
inactive: saracatinib 0.075 | sotrastaurin 0.035 | Tubastatin A -0.067 | [1] -0.035 | defactinib -0.014 | rucaparib -0.013 | [2] -0.114 | encorafenib -0.071 | [3] 0.136
